Reference: article PMC8985225
These are yes or no findings as the source states them, for the method shown. Some results given as binding are weak or reduced against the parent protein; the word gives no strength.

By UniProt entry, the sequences of proteins in these tests, tags left out.
UniProt P08413: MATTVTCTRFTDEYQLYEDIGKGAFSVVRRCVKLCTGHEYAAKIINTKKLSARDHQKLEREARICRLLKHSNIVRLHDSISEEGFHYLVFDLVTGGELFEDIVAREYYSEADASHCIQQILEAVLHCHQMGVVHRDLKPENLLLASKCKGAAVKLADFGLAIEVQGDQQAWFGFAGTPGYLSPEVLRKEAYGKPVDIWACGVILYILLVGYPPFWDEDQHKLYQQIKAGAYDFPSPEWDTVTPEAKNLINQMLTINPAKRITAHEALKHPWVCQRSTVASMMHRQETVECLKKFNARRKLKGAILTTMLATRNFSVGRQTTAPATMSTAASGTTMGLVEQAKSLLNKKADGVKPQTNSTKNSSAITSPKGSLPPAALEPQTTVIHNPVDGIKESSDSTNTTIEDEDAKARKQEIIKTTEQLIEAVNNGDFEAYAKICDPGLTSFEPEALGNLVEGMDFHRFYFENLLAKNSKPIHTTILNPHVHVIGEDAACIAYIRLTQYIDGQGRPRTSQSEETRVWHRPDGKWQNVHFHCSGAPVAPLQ

Legend:
[1] = target: Ca^2+/CaM-dependent kinase II β (CaMKIIβ) holoenzyme (rodent) (UniProt P08413); assay: co-sedimentation; self-association assay as above (0.5 μM CaMKII, Ca^2+/CaM, ADP, pH 6.4); 100,000 × g pellet, immunoblot; clustering of holoenzymes; both purified
[2] = target: Ca^2+/CaM-dependent kinase II β (CaMKIIβ) holoenzyme (rodent) (UniProt P08413); assay: negative-stain single-particle EM; same specimens; focused 2D classification of the kinase domains with the hub domain masked away (13.5 nm inner mask); kinase domain dimers within the holoenzyme; both purified

- binding [1]: binds
- binding [2]: binds
Substance: Ca^2+/CaM-dependent kinase II β (CaMKIIβ) holoenzyme (from UniProt P08413 1-542)
